These results are taken from patent publication US9249124B2 (priority 2011, dated 2016).

Structures are written as SMILES.

The test system of the test is phosphorylation of serine 10 on Histone H3 (Aurora A substrate) in MDA-MB-468 breast cancer cells.

On to `CCOC(=O)c1ccc(Nc2nc(Cl)c(Cl)c(Nc3ccccc3C(=O)O)n2)cc1.Cl` [Compound 3t, N^4-(2-Carboxyphenyl)-N^2-(4-ethoxycarbonylphenyl)-5,6-dichloropyrimidine-2,4-diamine hydrochloride], for which the “activity in whole / intact cells” value was “poor activity in intact cells”.
